In patent US20110190218A1:
No constants are given. Whether binding was seen depends on the method and setting. In cells and extracts the contact can be indirect. Some entries that bind do so weakly or less than the wild type.

Sequences of proteins named here, by UniProt entry; tags and fusion partners are left off. Residues count along the entry.
UniProt P38646, residues 47-679: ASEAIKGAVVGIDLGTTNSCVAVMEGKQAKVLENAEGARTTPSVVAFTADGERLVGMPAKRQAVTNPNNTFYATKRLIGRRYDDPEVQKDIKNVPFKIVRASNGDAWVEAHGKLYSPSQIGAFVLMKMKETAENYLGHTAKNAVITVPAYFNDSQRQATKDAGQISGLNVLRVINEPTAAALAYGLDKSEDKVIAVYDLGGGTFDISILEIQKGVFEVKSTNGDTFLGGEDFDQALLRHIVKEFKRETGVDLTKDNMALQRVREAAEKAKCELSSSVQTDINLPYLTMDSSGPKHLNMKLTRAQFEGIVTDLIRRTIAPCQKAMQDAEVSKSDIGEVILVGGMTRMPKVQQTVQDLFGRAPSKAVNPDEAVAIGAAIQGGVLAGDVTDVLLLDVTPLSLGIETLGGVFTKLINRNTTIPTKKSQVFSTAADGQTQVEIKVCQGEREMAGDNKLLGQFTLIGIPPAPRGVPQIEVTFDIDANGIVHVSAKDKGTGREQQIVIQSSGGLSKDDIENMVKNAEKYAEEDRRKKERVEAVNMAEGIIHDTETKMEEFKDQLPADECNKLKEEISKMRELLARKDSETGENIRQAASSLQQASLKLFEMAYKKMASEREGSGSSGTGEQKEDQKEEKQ
UniProt P11021, residues 19-654: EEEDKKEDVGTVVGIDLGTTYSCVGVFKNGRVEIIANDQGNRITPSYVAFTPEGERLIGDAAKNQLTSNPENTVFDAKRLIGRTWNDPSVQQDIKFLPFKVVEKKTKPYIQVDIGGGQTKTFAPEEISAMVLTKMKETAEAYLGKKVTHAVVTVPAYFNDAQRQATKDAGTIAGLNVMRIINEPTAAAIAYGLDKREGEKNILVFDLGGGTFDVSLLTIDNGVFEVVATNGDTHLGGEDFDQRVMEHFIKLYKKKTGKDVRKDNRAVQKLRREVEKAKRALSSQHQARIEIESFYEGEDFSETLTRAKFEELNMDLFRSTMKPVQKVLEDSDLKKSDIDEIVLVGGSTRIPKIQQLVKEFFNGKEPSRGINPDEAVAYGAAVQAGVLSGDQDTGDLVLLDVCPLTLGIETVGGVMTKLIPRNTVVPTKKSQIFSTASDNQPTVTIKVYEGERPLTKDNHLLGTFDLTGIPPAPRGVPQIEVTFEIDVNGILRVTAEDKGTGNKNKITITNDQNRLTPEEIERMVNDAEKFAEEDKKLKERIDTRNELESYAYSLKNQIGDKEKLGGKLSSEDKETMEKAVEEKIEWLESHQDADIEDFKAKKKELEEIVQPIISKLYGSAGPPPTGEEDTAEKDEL
UniProt P0DMV8, residues 2-641: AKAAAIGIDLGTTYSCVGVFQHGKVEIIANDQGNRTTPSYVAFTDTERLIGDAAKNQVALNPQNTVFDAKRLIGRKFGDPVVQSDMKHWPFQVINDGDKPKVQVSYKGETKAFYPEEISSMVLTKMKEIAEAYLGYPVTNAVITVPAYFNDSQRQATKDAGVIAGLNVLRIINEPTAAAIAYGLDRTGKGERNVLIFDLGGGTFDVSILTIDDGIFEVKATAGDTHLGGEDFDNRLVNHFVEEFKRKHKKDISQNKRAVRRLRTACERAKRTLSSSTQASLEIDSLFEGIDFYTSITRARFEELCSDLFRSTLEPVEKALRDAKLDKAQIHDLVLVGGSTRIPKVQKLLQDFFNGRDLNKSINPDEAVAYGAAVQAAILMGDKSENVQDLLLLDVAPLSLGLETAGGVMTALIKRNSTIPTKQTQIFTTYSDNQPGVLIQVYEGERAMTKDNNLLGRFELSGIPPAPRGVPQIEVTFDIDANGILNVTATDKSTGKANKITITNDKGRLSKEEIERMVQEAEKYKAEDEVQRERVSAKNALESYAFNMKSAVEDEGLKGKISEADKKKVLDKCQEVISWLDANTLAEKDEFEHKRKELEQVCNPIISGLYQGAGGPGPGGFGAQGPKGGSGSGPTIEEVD
UniProt P10275: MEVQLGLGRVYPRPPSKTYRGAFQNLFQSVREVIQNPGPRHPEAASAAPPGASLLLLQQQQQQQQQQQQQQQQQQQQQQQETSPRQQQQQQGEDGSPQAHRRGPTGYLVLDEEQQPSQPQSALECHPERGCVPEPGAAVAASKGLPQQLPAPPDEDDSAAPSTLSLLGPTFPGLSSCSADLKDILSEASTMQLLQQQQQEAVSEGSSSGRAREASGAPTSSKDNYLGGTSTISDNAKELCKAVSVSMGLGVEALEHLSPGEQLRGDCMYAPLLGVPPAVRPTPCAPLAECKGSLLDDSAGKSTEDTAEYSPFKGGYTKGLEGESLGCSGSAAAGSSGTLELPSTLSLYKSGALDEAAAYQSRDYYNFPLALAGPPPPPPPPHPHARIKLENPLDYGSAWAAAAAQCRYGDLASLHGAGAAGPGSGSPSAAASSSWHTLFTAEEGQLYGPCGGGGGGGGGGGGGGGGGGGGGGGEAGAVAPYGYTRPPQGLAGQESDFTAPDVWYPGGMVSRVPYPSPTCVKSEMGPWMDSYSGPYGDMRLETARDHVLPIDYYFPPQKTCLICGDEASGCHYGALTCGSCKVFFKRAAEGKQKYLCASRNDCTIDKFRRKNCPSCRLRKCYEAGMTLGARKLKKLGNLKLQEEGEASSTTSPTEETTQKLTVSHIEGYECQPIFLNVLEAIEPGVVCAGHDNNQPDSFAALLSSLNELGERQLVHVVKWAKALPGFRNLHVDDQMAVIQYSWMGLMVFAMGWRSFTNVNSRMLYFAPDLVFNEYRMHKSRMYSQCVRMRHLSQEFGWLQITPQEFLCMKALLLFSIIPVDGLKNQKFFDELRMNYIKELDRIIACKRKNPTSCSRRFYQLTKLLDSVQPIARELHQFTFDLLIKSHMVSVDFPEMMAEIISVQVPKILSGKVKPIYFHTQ

Tests used:
GRP75 (human) [1] = molecular target: GRP75 (human) (UniProt P38646); test: GST pull-down from 22Rv.1 and LNCaP lysates, silver stain, identified by nanoLC-ESI-MSMS as GRP75, GRP78, polyubiquitin, and histone H2ai
GRP78 (human) [2] = molecular target: GRP78 (human) (UniProt P11021); test: as above
Hsp70 (human) = Hsp70 (human) (UniProt P0DMV8); test: GST pull-down from 22Rv.1 lysate, immunoblot
GRP75 (human) [3] = molecular target: GRP75 (human) (UniProt P38646); test: GST pull-down from 22Rv.1 lysate, immunoblot with anti-GRP75 (FIG. 4C)
[4] = molecular target: androgen receptor (human) (UniProt P10275); test: GST pull-down from 22Rv.1 lysate (vehicle or DHT), immunoblot
GRP78 (human) [5] = molecular target: GRP78 (human) (UniProt P11021); test: GST pull-down from 22Rv.1 lysate, immunoblot with anti-GRP78 (FIG. 4C)

Measured: binding

GST-Bag-1L-(202-345) (from UniProt P08515 1-218; Q99933 202-345)
binds: all assays above
